Experimental data reported in the supplement of paper PMC7646827.
Where a name gives a salt, the structure may show the parent alone. Single values are uncertain, as repeats are few or missing.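 All cells are established human bladder cancer lines, one of them grown from a patient-derived xenograft. Viability was read by a luminescent ATP assay as percent inhibition versus vehicle over a seven-point dilution series; the paper calls scores above 59 very active, 30–59 active, 21–29 semi-active, 9–20 low active and below 9 inactive.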

Assays:
Assay in all cases: drug sensitivity score DSS3 (score 0-100); higher = more sensitive; extreme values may be limits of the assay
Conditions in all cases: culture: 3D, ultra-low attachment; treatment time: 5 days
[1] = system: UM-UC-9
[2] = system: UM-UC-1
[3] = system: UM-UC-18
[4] = system: UM-UC-6
[5] = system: SCaBER
[6] = system: UM-UC-14
[7] = system: UM-UC-3
[8] = system: J82
[9] = system: UM-UC-12
[10] = system: 5637
[11] = system: TCCSUP
[12] = system: T-24
[13] = system: BC8149
[14] = system: SW780
[15] = system: UM-UC-15
[16] = system: UM-UC-5
[17] = system: UM-UC-17

| Compound | drug sensitivity score DSS3 [1] | drug sensitivity score DSS3 [2] | drug sensitivity score DSS3 [3] | drug sensitivity score DSS3 [4] | drug sensitivity score DSS3 [5] | drug sensitivity score DSS3 [6] | drug sensitivity score DSS3 [7] | drug sensitivity score DSS3 [8] | drug sensitivity score DSS3 [9] | drug sensitivity score DSS3 [10] | drug sensitivity score DSS3 [11] | drug sensitivity score DSS3 [12] | drug sensitivity score DSS3 [13] | drug sensitivity score DSS3 [14] | drug sensitivity score DSS3 [15] | drug sensitivity score DSS3 [16] | drug sensitivity score DSS3 [17] |
| --- | --- | --- | --- | --- | --- | --- | --- | --- | --- | --- | --- | --- | --- | --- | --- | --- | --- |
| COC(=O)[C@H](CCSC)NC(=O)c1ccc(NC[C@@H](N)CS)cc1-c1ccccc1 [FTI 277 HCl] (max dose 10000 nM) | 0 | 36.1 | 0 | 2.32 | 0 | 0.741 | 1.16 | 0 | 0 | 8.15 | 5.38 | 0 | 2.24 | 0 | 0 | 0 | 1.08 |
| CCc1c2c(nc3ccc(OC(=O)N4CCC(N5CCCCC5)CC4)cc13)-c1cc3c(c(=O)n1C2)COC(=O)[C@]3(O)CC [Irinotecan HCl Trihydrate] (max dose 10000 nM) | 0.0938 | 2.4 | 7.91 | 0.972 | 0.202 | 3.05 | 1.2 | 0 | 0 | 7.24 | 9.22 | 0.429 | 10.7 | 0 | 0 | 0.167 | 0.536 |
| C[C@H](NC(=O)/C(C#N)=C/c1cccc(Br)n1)c1ccccc1 [WP1066] (max dose 10000 nM) | 0 | 0 | 0 | 0 | 0 | 0 | 0 | 0 | 0 | 0 | 0 | 0 | 0 | 0 | 0 | 0.564 | 0 |
| CS(=O)(=O)n1cc2c(n1)CN([C@H]1CO[C@H](c3cc(F)ccc3F)[C@@H](N)C1)C2 [Omarigliptin (MK-3102)] (max dose 10000 nM) | 0 | 0 | 0.0453 | 0 | 0 | 0 | 0 | 0 | 6.85 | 0.588 | 0 | 0 | 0.769 | 0 | 11.2 | 0 | 0.112 |
| C[C@]12CC[C@@H]3c4ccc(O)cc4CC[C@H]3[C@@H]1CC[C@@H]2O [Estradiol] (max dose 10000 nM) | 0 | 0 | 0 | 0 | 0 | 0 | 0 | 0 | 0.154 | 0 | 0 | 0 | 0 | 0 | 0 | 0 | 0 |
| COC(=O)Nc1ccc(-c2nc(N3CCOCC3)c3cnn(C4CCN(C(=O)OC)CC4)c3n2)cc1 [WYE-354] (max dose 10000 nM) | 0 | 3.41 | 1.8 | 1.29 | 2.37 | 3.15 | 0.759 | 1.6 | 1.81 | 1.83 | 5.91 | 0 | 4.93 | 1.26 | 0 | 1.88 | 1.2 |
| COc1ncc(-c2cc(-c3ncc(CN4C[C@@H](C)O[C@@H](C)C4)o3)c3cn[nH]c3c2)cc1NS(C)(=O)=O (max dose 10000 nM) | 0 | 12.8 | 5.02 | 0.159 | 2 | 8.5 | 10.2 | 0 | 0 | 3.67 | 13.6 | 0 | 5.2 | 0 | 0 | 0.111 | 0.506 |
| CN1CC[C@H](c2c(O)cc(O)c3c(=O)cc(-c4ccccc4Cl)oc23)[C@H](O)C1 [Flavopiridol HCl] (max dose 10000 nM) | 15.9 | 20.3 | 26.6 | 16.5 | 35.8 | 7.33 | 24.9 | 22.7 | 29.7 | 20.3 | 24.9 | 16.8 | 26.6 | 4.26 | 15.8 | 15.3 | 19.6 |
| CN1CCN(c2ccc(OC(F)(F)F)c(Nc3ncc4c(n3)-c3c(c(C(N)=O)nn3CCO)CC4)c2)CC1 (max dose 10000 nM) | 6.5 | 23.5 | 17.5 | 51.6 | 9.39 | 27.2 | 29.8 | 1.92 | 9.26 | 45.3 | 45.6 | 0.412 | 31 | 13.3 | 0 | 0 | 41.4 |
| Nc1ccccc1NC(=O)c1ccc(CNc2nccc(-c3cccnc3)n2)cc1 [Mocetinostat (MGCD0103)] (max dose 10000 nM) | 1.88 | 2.41 | 10.1 | 3 | 37.8 | 2.86 | 1.27 | 4.86 | 4.24 | 20.1 | 47.7 | 7.25 | 41.9 | 1.72 | 0 | 5.59 | 2.3 |
